This test concerns the target T1, rice heterotrimeric G protein β subunit, Gβ (rice (Oryza sativa)) (UniProt Q40687).
T1 sequence: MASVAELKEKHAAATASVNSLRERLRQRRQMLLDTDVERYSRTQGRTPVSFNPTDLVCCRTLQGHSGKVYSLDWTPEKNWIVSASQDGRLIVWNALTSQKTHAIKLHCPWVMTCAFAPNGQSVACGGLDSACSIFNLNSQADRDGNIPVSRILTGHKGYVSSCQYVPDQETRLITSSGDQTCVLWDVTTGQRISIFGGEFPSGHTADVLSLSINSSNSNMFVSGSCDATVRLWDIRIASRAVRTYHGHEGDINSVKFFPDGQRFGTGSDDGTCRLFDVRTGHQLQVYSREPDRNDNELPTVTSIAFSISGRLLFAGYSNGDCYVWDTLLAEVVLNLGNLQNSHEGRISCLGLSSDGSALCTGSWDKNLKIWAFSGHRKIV
The test is described as follows: two-hybrid; yeast two-hybrid, data not shown; bait and prey not stated.

No constants are given. Whether binding was seen depends on the method and setting. Some binding calls cover weakened binding; strength is not graded here.

B1: truncated Gγ4 of the RGG4 mutant Dn1-1, Gγ4∆Cys (domain or fragment, UniProt Q67UU9 1-170)
chain: MGEEAVVMEAPRPKSPPRYPDLCGRRRMQLEVQILSREITFLKDELHFLEGAQPVSRSGCIKEINEFVGTKHDPLIPTKRRRHRSCRLFRWIGSKLCICISCLCYCCKCSPKCKRPRCLNCSCSSCCDEPCCKPNCSACCAGSCCSPDCCSCCKPNCSCCKTPSCCKPNC
Regarding B1, the binding result is listed as “binds”.

B2: rice heterotrimeric G protein γ4 subunit, Gγ4 (protein, UniProt Q67UU9 1-426)
chain: MGEEAVVMEAPRPKSPPRYPDLCGRRRMQLEVQILSREITFLKDELHFLEGAQPVSRSGCIKEINEFVGTKHDPLIPTKRRRHRSCRLFRWIGSKLCICISCLCYCCKCSPKCKRPRCLNCSCSSCCDEPCCKPNCSACCAGSCCSPDCCSCCKPNCSCCKTPSCCKPNCSCSCPSCSSCCDTSCCKPSCTCFNIFSCFKSLYSCFKIPSCFKSQCNCSSPNCCTCTLPSCSCKGCACPSCGCNGCGCPSCGCNGCGCPSCGCNGCGLPSCGCNGCGSCSCAQCKPDCGSCSTNCCSCKPSCNGCCGEQCCRCADCFSCSCPRCSSCFNIFKCSCAGCCSSLCKCPCTTQCFSCQSSCCKRQPSCCKCQSSCCEGQPSCCEGHCCSLPKPSCPECSCGCVWSCKNCTEGCRCPRCRNPCCLSGCLC
On to B2, for which the binding result is on record as “binds”.
